Assay results as given in patent US8071575B2, “Methods and compounds for the targeted delivery of agents to bone for interaction therewith” (priority 2007, dated 2011).
At least one compound was matched to its structure with a doubt left.

Assay: Hydroxyapatite (HA) Binding Assay
Conditions: for Binding Index (binding to hydroxyapatite): 10^−5 M analyte, 50 mM Tris-HCl pH 7.4, 1% DMSO, adjusted such that tetracycline = 100
Method: A Hydroxyapatite (HA) Binding Assay is used to determine whether compounds have an affinity for bone. Compounds of the presently-disclosed subject matter having a Bone Targeting Portion (RT) are studied using the HA Binding Assay. A 10^−3 M solution of each analyte was made in 100% dimethylsulfoxide (DMSO). A 100 fold dilution was then made to form a 10^−5 M solution in 50 mM Tris-HCl buffer, pH 7.4, 1% DMSO. Tetracycline was used as a reference analyte and approximately 50% was adsorbed to HA at the concentration of 10^−5 M. The HA slurry was 0.5 g/100 mL 50 mM Tris-HCl buffer, 1% DMSO.
For each analyte, two samples were prepared. For one sample, 1 mL of 10^−5 M analyte and 100 μL 50 mM Tris-HCl buffer, 1% DMSO was pipetted into a microcentrifuge tube. For the second sample, 1 mL of 10^−5 M analyte and 100 μL of the HA slurry was pipetted into a microcentrifuge tube. The samples were mixed gently by inversion for 4 minutes and then centrifuged at 12,000 g for 3 minutes to sediment the HA contained in those samples. The supernatant was transferred to another microcentrifuge tube.
An electronic spectral scan (ultraviolet-visible) from 220-520 nm was obtained for each analyte using a Varian Cary 300 Bio Scan. The blank was 50 mM Tris-HCl buffer, 1% DMSO. The wavelength of maximum absorbance (λmax) was determined, and the extinction coefficient (ε) was calculated using the Beer-Lambert Law.
The absorbance of the samples incubated with HA was measured at λmax, and the molar concentration of the analyte was then determined using the Beer-Lambert Law and the previously calculated extinction coefficient. The fraction adsorbed to HA for each sample was subsequently calculated.

Row | SMILES | Binding Index (binding to hydroxyapatite) | fraction adsorbed to HA (concentration of 10^−5 M)
1 | C[C@]12CC[C@@H]3c4ccc(O)cc4CC[C@H]3[C@@H]1CC[C@@H]2O [17, β-estradiol, 17-β-enantiomer of estradiol, reference compound] | −8 | –
2 | CN(C)[C@@H]1C(O)=C(C(N)=O)C(=O)[C@@]2(O)C(O)=C3C(=O)c4c(O)cccc4[C@@](C)(O)[C@H]3C[C@@H]12 [tetracycline, Tetracycline, reference compound] | 100 | approximately 50%
